Reference: ChEMBL document CHEMBL4513149, “CO-ADD screening of MMV (CH) - MMV compounds” (2021)
This is one part of the list. Entries with a potency or affinity are not part of this list.

Each compound was assayed on Pseudomonas aeruginosa. Details: Concentration 20 uM; ASSAY_TEST Inhibition of Bacterial Growth; detection method Absorption (OD600); MEDIA CAMHB; plate type 384well; NBS; CORNING #3640; time 18 hr.

| Compound | Inhibition |
| --- | --- |
| NC(=O)c1cc(Br)ccc1OCCOc1ccccc1 | 5.76% |
| CCOC(=O)c1cc(-c2csc(Nc3c(C)cc(C)cc3C)n2)on1 | 10.94% |
| Cc1cc2nc(NC(=O)C(C)(C)C)nc(Cl)c2n1Cc1ccc(Cl)cc1 | 0.95% |
| CN1CCCN(C(c2ccccc2)c2ccc(Cl)cc2)CC1 (configuration not stated) [HOMOCHLORCYCLIZINE] | 6.82% |
| c1ccc(Oc2ccc(-c3cc(C4CCOCC4)[nH]n3)cc2)cc1 | 26.87% |
| CCc1ccc(C(NCc2nc(N)nc(N(C)C)n2)C(C)C)cc1 (configuration not stated) | 14.01% |
| NCC(=O)N1CCn2c(nc(-c3ccccc3)c2Nc2ccc3c(c2)OCO3)C1 | 5.26% |
| Nc1nccc2ccc(Oc3ccncc3)cc12 | 15.65% |
| O=C(Nc1ccnc(-c2cccnc2)n1)c1cc(C(F)(F)F)cc(C(F)(F)F)c1 | 16.26% |
| CCC(NC(=O)c1ccccc1NC(=O)c1ccc(C)cc1)C(=O)OC (configuration not stated) | 10.28% |
| CN1CCN(c2cc(-c3ccc(F)cc3)nc(-c3ccncc3)n2)CC1 | 6.21% |
| Cc1ccc(NC(=O)c2cc(S(=O)(=O)NC(C)(C)C)ccc2C)nc1 | 16.31% |
| Cc1ccc2nc(Cl)c(CNCc3cccs3)cc2c1 | 3.2% |
| COc1ccc(C2=NN(C3CCCCCC3)C(=O)C2(C)C)cc1OCCCCOc1ccc(-c2nn[nH]n2)cc1 | 4.89% |
| COc1cc(OC)cc(C(=O)NCC2Cc3cc(Cl)cc(-c4ccncc4)c3O2)c1 (configuration not stated) | 4.47% |
| COc1ccc(-c2nnc3ccc(-c4cccc(C(C)C)c4)cn23)cc1OC | 7.39% |
| Cc1cc(OCC(=O)Nc2ccc(C(C)C)cc2)n(C)c(=O)c1C#N | 8.56% |
| COC(=O)c1cccc2oc(-c3cccc(OC)c3NC(=O)c3cc(-c4ccccc4)on3)nc12 | 8.15% |
| O=C(NCCc1ccccc1)c1cc(-c2cccnc2)cnc1NCC1CC1 | -0.54% |
| CC(C)(C)c1cc(C(=O)Nc2cccnc2)cc(C(=O)Nc2cccnc2)c1 | 5.87% |
| Nc1ncnc2c1ncn2C[C@@H](O)[C@@H](O)C(=O)O [ERITADENINE] | 17.98% |
| c1coc(CNc2nc(N3CCCCC3)nc3ccccc23)c1 | 9.51% |
| O=C(N[C@H](Cc1ccccc1)C(=O)Nc1ccccc1N1CCOCC1)c1cccs1 | 9.66% |

| Compound | Inhibition |
| --- | --- |
| O=C1COCc2ccc(Br)cc2N1Cc1ccc(C(F)(F)F)cc1 | 14.7% |
| Cl.O[C@@H](c1cc(C(F)(F)F)nc2c(C(F)(F)F)cccc12)[C@H]1CCCCN1 | 18.63% |
| c1ccc(Oc2ccc(-c3cncc(-c4ccc5[nH]ccc5c4)n3)cc2)cc1 | 18.35% |
| COc1cc(C2=NCCN2)ccc1-n1cc(-c2cccc(C3=NCCN3)c2)nn1.O=CO.O=CO | 8.66% |
| COc1cccc(CC(=O)N2CCC(n3c(C)nc4ccc(F)cc43)CC2)c1 | 12.63% |
| O=C(c1ccc(NCCO)cc1)C1C[C@H]1c1ccc(Cl)cc1 (some centres not stated) | 3.91% |
| Nc1nc(N)c2c3c(sc2n1)CN(Cc1ccccc1)CC3 | 12.64% |
| COCC(C)NC(=O)CSc1ncnc2sc(-c3ccccc3)cc12 (configuration not stated) | 12.56% |
| c1ccc(-c2cc(N3CCCCC3)c3ccccc3n2)nc1 | 13.54% |
| Cc1ccc(NC(=O)c2nc[nH]c2C(=O)Nc2nc3ccccc3[nH]2)c(C)c1 | 12.15% |
| CCc1nc2ccc(Cl)cn2c1C(=O)NCc1ccc(N2CCC(c3ccc(OC(F)(F)F)cc3)CC2)cc1 [TELACEBEC] | 16.3% |
| COc1ccc(N(CCc2cccc(C)n2)C(=O)C2CCCCC2)cc1 | 10.98% |
| Cc1nnc(NCc2cccc(Cl)c2)c2ccccc12 | 16.77% |
| COc1cc2ncnc(NC3CCN(Cc4ccccc4)CC3)c2cc1OC | 7.14% |
| FC(F)(F)c1cc(NCCc2ccccc2)nc(-c2ccccn2)n1 | -8.01% |
| CC(C)(C)n1nc(Cc2ccc(F)c(Cl)c2)c2c(N)ncnc21 | 9.69% |
| Cc1nc(-c2ccccn2)nc(NCCc2ccc(S(C)(=O)=O)cc2)c1Cl | 7.92% |
| COc1ccc2nc(C)cc(OCC(=O)NCc3ccccc3)c2c1 | 16.67% |
| O=C(NC1CC1)c1ccc(N2CCOc3ccc(Cl)cc32)s1 | 13.73% |
| CCc1nc2ccc(C(=O)NCc3ccc4c(c3)OCO4)cn2c1N(C)Cc1cccs1 | 3.23% |
| CCc1ccccc1-n1c(C)cn2c3c(=O)n(C(C(=O)OC)C(C)C)c(=O)n(C)c3nc12 (configuration not stated) | 11.58% |
| CCc1ccc(S(=O)(=O)Nc2cc(CN3CCN(CCC(C)C)CC3)ccc2C)cc1 | 17.64% |
| COC(=O)c1c(NC(=O)c2cc3ccccc3oc2=O)sc2c1CCN(Cc1ccccc1)C2 | 13.11% |

| Compound | Inhibition |
| --- | --- |
| CC(C)(C)n1nc(Cc2cccc3ccccc23)c2c(N)ncnc21 | 2.58% |
| COc1ccc(N(CCc2cccc(C)n2)C(C)=O)cc1 | 12.62% |
| NS(=O)(=O)c1cccc(-c2ccc3ncc(N4CCOCC4)nc3c2)c1 | 13.07% |
| Cc1[nH]c2cc(F)cc(F)c2c(=O)c1-c1ccc(Oc2ccc(OC(F)(F)F)cc2)cc1 | 1.91% |
| CC(C)(C)c1cnc(NC(=O)c2ccccc2O)s1 | 6.92% |
| c1ccc(Oc2ccc(-c3cc(CN4CCOCC4)[nH]n3)cc2)cc1 | 4.64% |
| CCc1nc2ccccc2n1CC(O)COc1cc(C)ccc1Cl (configuration not stated) | 5.73% |
| CC(C)(CN)c1nc(-c2ccc(Cl)c(O)c2)c(-c2ccnc(N)n2)[nH]1.O=C(O)C(F)(F)F.O=C(O)C(F)(F)F | 14.38% |
| CS(=O)(=O)c1ccccc1C(=O)N(Cc1ccccc1)c1ccccc1 | 9.99% |
| O=C(Nc1cnc2ccccc2c1)c1cccc(-n2cnnn2)c1 | 7.51% |
| Cc1ccc(Oc2ccc(NC(=O)CNc3ccccc3N3CCCC3=O)cc2)cc1 | 6.31% |
| O=C(Nc1nc(-c2ccccn2)cs1)C1CC1c1ccccc1F (configuration not stated) | 22.08% |
| CCc1ccc([C@@H]2C[C@H](C(F)(F)F)n3ncc(C(=O)NCc4ccc(OC)cc4)c3N2)cc1 | 4.41% |
| Cc1nc2ccccn2c1C(=O)NCc1ccc(Cl)cc1 | 14.4% |
| Cc1cc(C(=O)Nc2ccc(-c3ccccc3)cc2)no1 | 14.78% |
| COc1ccc(CCN2CCC(NCc3cccc(N(C)C)c3)CC2)cc1 | 14.06% |
| Cc1ccc2oc(-c3cc(NC(=O)Cc4ccccc4)ccc3Cl)nc2c1 | 0.26% |
| O=C(C1CCCCC1)N1CC(=O)N2CCc3ccccc3C2C1 (configuration not stated) [PRAZIQUANTEL] | 8.27% |
| C[C@]1(O)C[C@@H](c2nc(-c3ccc4ccc(-c5ccccc5)nc4c3)c3c(N)nccn32)C1 [LINSITINIB] | 6.6% |
| CC(C)(C(=O)Nc1ccc(F)cc1)n1cc(-c2ccccc2F)cn1 | 14.56% |
| Cc1c[nH]c(CCNC(=O)c2cc(-c3ccc(Cl)cc3)cs2)n1 | 18.02% |
| CC1=Nc2ccc(Cl)cc2C(O)(c2ccc(C)cc2)N1CCN1CCCCC1 (configuration not stated) | 19.99% |
| CC(C)C(Oc1cccc2ccccc12)C(=O)O (configuration not stated) | 8.03% |

4 of the compounds above, field by field.
CCc1nc2ccc(C(=O)NCc3ccc4c(c3)OCO4)cn2c1N(C)Cc1cccs1
  Inhibition: 3.23%
CCc1ccccc1-n1c(C)cn2c3c(=O)n(C(C(=O)OC)C(C)C)c(=O)n(C)c3nc12 (configuration not stated)
  Inhibition: 11.58%
CCc1ccc(S(=O)(=O)Nc2cc(CN3CCN(CCC(C)C)CC3)ccc2C)cc1
  Inhibition: 17.64%
COC(=O)c1c(NC(=O)c2cc3ccccc3oc2=O)sc2c1CCN(Cc1ccccc1)C2
  Inhibition: 13.11%

Remaining list, next part.

| Compound | Inhibition |
| --- | --- |
| CCn1ncc2c(NC3CCOCC3)c(CNC(=O)c3ccnn3C)c(C)nc21 | -3.99% |
| CCCn1nnc(NC(=O)COc2ccc(C3CCCCC3)cc2)n1 | 1.58% |
| COc1ccc(C2=NCCN2)cc1-c1cn(-c2cccc(C3=NCCN3)c2)nn1.O=C(O)C(F)(F)F.O=C(O)C(F)(F)F | 14.39% |
| Clc1cccc(CO[C@H]2CCc3ccccc3[C@@H]2n2ccnn2)c1 | 4.95% |
| COc1ccc(C2=NN(C3CCCCCC3)C(=O)[C@@H]3CC=CC[C@H]23)cc1OCCCCOc1ccc(-c2nnn[nH]2)cc1 | 5.33% |
| CC1(C)Cc2c(c(N3CCOCC3)nc3snc(Br)c23)CO1 | 12.17% |
| CCNC(=O)C(C)Nc1nc(-c2cccnc2)nc2sc(C)c(C)c12 (configuration not stated) | 7.51% |
| CNc1cc(C)nc(C2CN(C(=O)c3n[nH]c4ccccc34)CCO2)c1 (configuration not stated) | 18.72% |
| Cc1cccc(-c2nc(Nc3ccncn3)c3sccc3n2)n1 | 10.1% |
| Cc1cc(Nc2ccncc2)n2nc(C)c(-c3ccccc3Cl)c2n1 | 18.79% |
| COc1cc(Br)cc2cc(C(=O)Nc3cccc(C(F)(F)F)c3)c(=O)oc12 | 9.72% |
| COC(=O)c1c(NC(=O)c2c(F)c(F)c(F)c(F)c2F)sc2c1CCCCC2 | 11.43% |
| CCOc1ccc2cc(-c3nn(C(C)(C)C)c(N)c3C(N)=O)cnc2c1.Cl | 18.58% |
| O=C(CCC1CCCCC1)Nc1cccc(-c2nnc(-c3ccco3)o2)c1 | 7.09% |
| CC(C)n1ncc2c(C(=O)NCC(c3cccs3)N3CCOCC3)cc(-c3ccccc3)nc21 (configuration not stated) | 6.38% |
| Cc1ccc(S(=O)(=O)N2CCN(C(=O)c3cc(-c4ccccc4)n[nH]3)CC2)cc1 | 1.63% |
| CS(=O)(=O)N1CCC(Cn2nc(Cc3cccc4ccccc34)c3c(N)ncnc32)CC1 | 11.58% |
| CC(C)(C)c1cc(C(=O)N2CCN(c3nccnc3C#N)CC2)n(Cc2ccccc2)n1 | 12.51% |
| CN1CCN(S(=O)(=O)c2ccc(-c3ccc4c(Nc5ncc(Cl)cn5)ccnc4c3)cc2)CC1 | 9.93% |
| CC(=O)N1CCc2cc3nc(C)cc(C)c3cc21 | 9.67% |
| COc1ccc(-c2cnc3ccc(NCc4ccc(S(N)(=O)=O)cc4)nn23)cn1 | 15.51% |
| CS(=O)(=O)c1ccc(C(=O)N(CC2CCCO2)c2nc3ccccc3s2)cc1[N+](=O)[O-] (configuration not stated) | 7.08% |
| O=C(c1cc2ccccc2o1)N1CCN(Cc2ccc3c(c2)OCO3)CC1 | 7.3% |
